Experimental data published in the supplement of paper PMC4604168 (melanoma cell lines).
The other results are listed elsewhere or left out. Single values are uncertain, as repeats are few or missing.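 The apoptosis fraction was the count of cleaved-PARP antibody-stained nuclei relative to all DNA-stained nuclei, imaged in 1,536-well plates. Screening doses were set so most cells survived, and baseline and induced cleaved-PARP levels vary greatly across cell lines.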

test system: G361; assay: cleaved PARP positive nuclei fraction relative to DMSO control; melanoma cells; higher = more apoptosis; settings: library dose: low library concentration; 72 h

Compound | cleaved PARP positive nuclei fraction
O=C(CCCCCCC(=O)Nc1ccccc1)NO [vorinostat] + Cc1cc(SCc2sc(-c3ccc(C(F)(F)F)c(F)c3)nc2C)ccc1OCC(=O)O [GW0742] (first compound 0.08 µM, partner dose 2 µM) | 15.7%
COC(=O)c1sccc1S(=O)(=O)Nc1ccc(Nc2ccccc2)cc1OC + O=C(Oc1ccc([N+](=O)[O-])cc1)N1CCC(C(O)(c2ccc3c(c2)OCO3)c2ccc3c(c2)OCO3)CC1 [JZL184] (first compound 1 µM, partner dose 1 µM) | 86.9%
Nc1cccc2c1CN(C1CCC(=O)NC1=O)C2=O (centres undefined) [lenalidomide] + O=C(Oc1ccc([N+](=O)[O-])cc1)N1CCC(C(O)(c2ccc3c(c2)OCO3)c2ccc3c(c2)OCO3)CC1 [JZL184] (first compound 1 µM, partner dose 1 µM) | 62.6%
Cn1cncc1[C@@](N)(c1ccc(Cl)cc1)c1ccc2c(c1)c(-c1cccc(Cl)c1)cc(=O)n2C [tipifarnib] + C/C(O)=C(\C#N)C(=O)Nc1cc(Br)ccc1Br [LFM-A13] (first compound 0.01 µM, partner dose 2 µM) | 68.7%
COc1cc(Nc2ncc(F)c(Nc3ccc4c(n3)NC(=O)C(C)(C)O4)n2)cc(OC)c1OC [Tamatinib] + C/C(O)=C(\C#N)C(=O)Nc1cc(Br)ccc1Br [LFM-A13] (first compound 0.4 µM, partner dose 2 µM) | 230%

test system: IPC-298; assay: as above; settings: library dose: low library concentration; 72 h

Compound | cleaved PARP positive nuclei fraction
C[As](C)SC[C@H](NC(=O)CC[C@H](N)C(=O)O)C(=O)NCC(=O)O [Darinaparsin] + c1cc(-c2cnn3cc(-c4ccc(OCCN5CCCCC5)cc4)cnc23)ccn1 [Dorsomorphin] (first compound 0.4 µM, partner dose 0.4 µM) | 214%
Cc1nc(Nc2ncc(C(=O)Nc3c(C)cccc3Cl)s2)cc(N2CCN(CCO)CC2)n1 [dasatanib] + Cc1cc(SCc2sc(-c3ccc(C(F)(F)F)c(F)c3)nc2C)ccc1OCC(=O)O [GW0742] (first compound 0.004 µM, partner dose 2 µM) | 82.1%
C/C(O)=C(\C#N)C(=O)Nc1cc(Br)ccc1Br + Oc1nc(-c2ccc(C(F)(F)F)cc2)nc2c1CSCC2 [XAV939] (first compound 2 µM, partner dose 2 µM) | 83%
O=C(Nc1cccc(Cl)c1)Nc1ncc(CCNc2ncnc3ccsc23)s1 + C/C(O)=C(\C#N)C(=O)Nc1cc(Br)ccc1Br [LFM-A13] (first compound 0.0008 µM, partner dose 2 µM) | 166%
Cc1ccc(NC(=O)c2cccc(N(C)C)c2)cc1NC(=O)c1ccc(O)cc1 + O=C(Oc1ccc([N+](=O)[O-])cc1)N1CCC(C(O)(c2ccc3c(c2)OCO3)c2ccc3c(c2)OCO3)CC1 [JZL184] (first compound 2 µM, partner dose 1 µM) | 210%
O=C(Oc1ccc([N+](=O)[O-])cc1)N1CCC(C(O)(c2ccc3c(c2)OCO3)c2ccc3c(c2)OCO3)CC1 + CC(C)CCN1c2nc(Nc3cc(F)c(O)c(F)c3)ncc2N(C)C(=O)C1C [BID1870] (first compound 1 µM, partner dose 0.2 µM) | 287%
OCCn1cc(-c2cnc3nnn(Cc4ccc5ncccc5c4)c3n2)cn1 + C/C(O)=C(\C#N)C(=O)Nc1cc(Br)ccc1Br [LFM-A13] (first compound 1 µM, partner dose 2 µM) | 68.1%
C[As](C)SC[C@H](NC(=O)CC[C@H](N)C(=O)O)C(=O)NCC(=O)O [Darinaparsin] + O=C1NC(=O)/C(=C/c2ccc(-c3ccc(F)cc3O)o2)S1 [AS252424] (first compound 0.4 µM, partner dose 1 µM) | 127%
Nc1cccc2c1CN(C1CCC(=O)NC1=O)C2=O (centres undefined) [lenalidomide] + Cc1cc(SCc2sc(-c3ccc(C(F)(F)F)c(F)c3)nc2C)ccc1OCC(=O)O [GW0742] (first compound 1 µM, partner dose 2 µM) | 41.1%
C/C(O)=C(\C#N)C(=O)Nc1cc(Br)ccc1Br + CCCCCCCCCCCC1=C(O)C(=O)C=C(O)C1=O [Embelin] (first compound 2 µM, partner dose 1.2 µM) | 80.2%
Cc1cc(SCc2sc(-c3ccc(C(F)(F)F)c(F)c3)nc2C)ccc1OCC(=O)O + Cn1cc(/C=C2\C(=O)Nc3cccnc32)c2ccccc21 [GW441756] (first compound 2 µM, partner dose 0.4 µM) | 54.4%
C[As](C)SC[C@H](NC(=O)CC[C@H](N)C(=O)O)C(=O)NCC(=O)O [Darinaparsin] + Cc1cc([N+](=O)[O-])ccc1NS(=O)(=O)c1cc(Cl)ccc1Cl [FH535] (first compound 0.4 µM, partner dose 1 µM) | 42.9%
C=CCn1c(=O)c2cnc(Nc3ccc(N4CCN(C)CC4)cc3)nc2n1-c1cccc(C(C)(C)O)n1 + O=C(Oc1ccc([N+](=O)[O-])cc1)N1CCC(C(O)(c2ccc3c(c2)OCO3)c2ccc3c(c2)OCO3)CC1 [JZL184] (first compound 0.02 µM, partner dose 1 µM) | 200%
C/C(O)=C(\C#N)C(=O)Nc1cc(Br)ccc1Br + c1cc(-c2cnn3cc(-c4ccc(OCCN5CCCCC5)cc4)cnc23)ccn1 [Dorsomorphin] (first compound 2 µM, partner dose 0.4 µM) | 83.6%
C/C(O)=C(\C#N)C(=O)Nc1cc(Br)ccc1Br + O=C(Oc1ccc([N+](=O)[O-])cc1)N1CCC(C(O)(c2ccc3c(c2)OCO3)c2ccc3c(c2)OCO3)CC1 [JZL184] (first compound 2 µM, partner dose 1 µM) | 78.7%
Cc1cc(SCc2sc(-c3ccc(C(F)(F)F)c(F)c3)nc2C)ccc1OCC(=O)O + O=C1NC(=O)/C(=C/c2ccc(-c3ccc(F)cc3O)o2)S1 [AS252424] (first compound 2 µM, partner dose 1 µM) | 90.6%
CCc1ccc(CCOc2ccc(CC3SC(=O)NC3=O)cc2)nc1 (centres undefined) [pioglitazone] + Cc1cc(SCc2sc(-c3ccc(C(F)(F)F)c(F)c3)nc2C)ccc1OCC(=O)O [GW0742] (first compound 2 µM, partner dose 2 µM) | 52.9%
COc1ccc2c(c1)CCC1C2CCC2(C)C(NCCCCCCN3C(=O)C=CC3=O)CCC12 (centres undefined) + O=C(Oc1ccc([N+](=O)[O-])cc1)N1CCC(C(O)(c2ccc3c(c2)OCO3)c2ccc3c(c2)OCO3)CC1 [JZL184] (first compound 0.4 µM, partner dose 1 µM) | 70.9%
Cc1cc(SCc2sc(-c3ccc(C(F)(F)F)c(F)c3)nc2C)ccc1OCC(=O)O + O=C(Oc1ccc([N+](=O)[O-])cc1)N1CCC(C(O)(c2ccc3c(c2)OCO3)c2ccc3c(c2)OCO3)CC1 [JZL184] (first compound 2 µM, partner dose 1 µM) | 76.2%
C/C(O)=C(\C#N)C(=O)Nc1cc(Br)ccc1Br + Cc1cc([N+](=O)[O-])ccc1NS(=O)(=O)c1cc(Cl)ccc1Cl [FH535] (first compound 2 µM, partner dose 1 µM) | 48.6%
NCC(=O)Nc1ccc(-n2nc(C(F)(F)F)cc2-c2ccc3c(ccc4ccccc43)c2)cc1 + O=C(Oc1ccc([N+](=O)[O-])cc1)N1CCC(C(O)(c2ccc3c(c2)OCO3)c2ccc3c(c2)OCO3)CC1 [JZL184] (first compound 1 µM, partner dose 1 µM) | 42.2%
O=C(O)C(=O)Nc1sc2c(c1C(=O)O)CCNC2 + C/C(O)=C(\C#N)C(=O)Nc1cc(Br)ccc1Br [LFM-A13] (first compound 1.66667 µM, partner dose 2 µM) | 40.5%
COc1ccc2c(c1)CCC1C2CCC2(C)C(NCCCCCCN3C(=O)C=CC3=O)CCC12 (centres undefined) + Cc1cc(SCc2sc(-c3ccc(C(F)(F)F)c(F)c3)nc2C)ccc1OCC(=O)O [GW0742] (first compound 0.4 µM, partner dose 2 µM) | 499%
Cc1ccc(NC(=O)c2cccc(N(C)C)c2)cc1NC(=O)c1ccc(O)cc1 + C/C(O)=C(\C#N)C(=O)Nc1cc(Br)ccc1Br [LFM-A13] (first compound 2 µM, partner dose 2 µM) | 91.4%
O=C(Oc1ccc([N+](=O)[O-])cc1)N1CCC(C(O)(c2ccc3c(c2)OCO3)c2ccc3c(c2)OCO3)CC1 + O=c1cc(-c2cccc3c2Sc2ccccc2S3)oc(N2CCOCC2)c1 [KU55933] (first compound 1 µM, partner dose 1 µM) | 148%
C/C(O)=C(\C#N)C(=O)Nc1cc(Br)ccc1Br + O=c1cc(-c2cccc3c2Sc2ccccc2S3)oc(N2CCOCC2)c1 [KU55933] (first compound 2 µM, partner dose 1 µM) | 239%
C=CCn1c(=O)c2cnc(Nc3ccc(N4CCN(C)CC4)cc3)nc2n1-c1cccc(C(C)(C)O)n1 + Cc1cc(SCc2sc(-c3ccc(C(F)(F)F)c(F)c3)nc2C)ccc1OCC(=O)O [GW0742] (first compound 0.02 µM, partner dose 2 µM) | 30.9%
C[C@]1(c2nc3c(C(N)=O)cccc3[nH]2)CCCN1 [Veliparib] + Cc1cc(SCc2sc(-c3ccc(C(F)(F)F)c(F)c3)nc2C)ccc1OCC(=O)O [GW0742] (first compound 1.4 µM, partner dose 2 µM) | 38.2%
CCN(CC)CCCCNc1ncc2cc(-c3cc(OC)cc(OC)c3)c(NC(=O)NC(C)(C)C)nc2n1 + Cc1cc(SCc2sc(-c3ccc(C(F)(F)F)c(F)c3)nc2C)ccc1OCC(=O)O [GW0742] (first compound 0.1 µM, partner dose 2 µM) | 65.3%

Shown in markdown: entries from further up.

| Compound | cleaved PARP positive nuclei fraction |
| --- | --- |
| Nc1cccc2c1CN(C1CCC(=O)NC1=O)C2=O (centres undefined) [lenalidomide] + Cc1cc(SCc2sc(-c3ccc(C(F)(F)F)c(F)c3)nc2C)ccc1OCC(=O)O [GW0742] (first compound 1 µM, partner dose 2 µM) | 41.1% |
| C/C(O)=C(\C#N)C(=O)Nc1cc(Br)ccc1Br + CCCCCCCCCCCC1=C(O)C(=O)C=C(O)C1=O [Embelin] (first compound 2 µM, partner dose 1.2 µM) | 80.2% |
